Laboratory results taken from the supplement of paper PMC10849652.
The list shows a part of the results.

The chains behind the UniProt entries cited, without tags or fusion partners. Where a name states a change or a piece, a line headed by the entry shows the natural chain unless it says otherwise.
UniProt Q9NPQ8: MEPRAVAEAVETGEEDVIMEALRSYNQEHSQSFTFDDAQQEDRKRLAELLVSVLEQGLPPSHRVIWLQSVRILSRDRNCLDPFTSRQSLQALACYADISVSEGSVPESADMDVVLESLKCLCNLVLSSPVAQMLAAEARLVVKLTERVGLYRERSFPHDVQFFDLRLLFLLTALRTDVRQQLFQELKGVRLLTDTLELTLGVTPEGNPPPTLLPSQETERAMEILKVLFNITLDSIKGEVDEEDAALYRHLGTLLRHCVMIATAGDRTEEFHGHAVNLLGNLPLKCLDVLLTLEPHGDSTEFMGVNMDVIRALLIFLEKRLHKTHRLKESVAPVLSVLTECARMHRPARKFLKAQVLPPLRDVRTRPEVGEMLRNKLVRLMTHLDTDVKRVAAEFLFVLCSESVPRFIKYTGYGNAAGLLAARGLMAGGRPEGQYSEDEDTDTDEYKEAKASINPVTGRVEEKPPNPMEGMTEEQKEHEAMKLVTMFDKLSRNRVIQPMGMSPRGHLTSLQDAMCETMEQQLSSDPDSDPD
UniProt Q8ND24: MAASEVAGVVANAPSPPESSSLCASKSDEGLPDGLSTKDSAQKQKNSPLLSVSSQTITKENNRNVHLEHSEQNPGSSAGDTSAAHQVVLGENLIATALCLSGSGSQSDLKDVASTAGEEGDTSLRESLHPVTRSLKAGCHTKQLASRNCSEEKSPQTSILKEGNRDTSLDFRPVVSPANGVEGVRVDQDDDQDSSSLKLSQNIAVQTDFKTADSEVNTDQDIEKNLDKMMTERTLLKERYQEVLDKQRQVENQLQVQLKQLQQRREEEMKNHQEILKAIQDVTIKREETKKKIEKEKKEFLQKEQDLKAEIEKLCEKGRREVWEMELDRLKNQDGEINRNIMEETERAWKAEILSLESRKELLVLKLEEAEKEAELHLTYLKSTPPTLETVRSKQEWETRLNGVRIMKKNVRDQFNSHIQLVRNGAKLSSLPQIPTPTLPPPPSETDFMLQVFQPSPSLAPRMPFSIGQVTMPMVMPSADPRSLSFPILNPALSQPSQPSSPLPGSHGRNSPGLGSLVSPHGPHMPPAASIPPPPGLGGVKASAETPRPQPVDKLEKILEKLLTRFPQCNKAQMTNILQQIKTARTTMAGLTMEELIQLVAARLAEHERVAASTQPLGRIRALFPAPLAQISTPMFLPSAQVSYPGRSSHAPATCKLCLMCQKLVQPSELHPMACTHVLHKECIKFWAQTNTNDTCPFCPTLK
UniProt Q9NTX7: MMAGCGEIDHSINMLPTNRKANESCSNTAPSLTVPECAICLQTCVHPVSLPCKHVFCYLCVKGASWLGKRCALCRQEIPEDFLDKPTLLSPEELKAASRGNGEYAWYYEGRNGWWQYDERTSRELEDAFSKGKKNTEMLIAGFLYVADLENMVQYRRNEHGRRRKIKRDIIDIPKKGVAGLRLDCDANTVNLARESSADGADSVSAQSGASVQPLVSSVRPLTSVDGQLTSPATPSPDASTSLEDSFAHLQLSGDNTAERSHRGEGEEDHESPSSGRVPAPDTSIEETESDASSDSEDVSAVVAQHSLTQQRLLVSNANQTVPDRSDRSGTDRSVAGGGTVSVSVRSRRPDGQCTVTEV
UniProt Q96DB5: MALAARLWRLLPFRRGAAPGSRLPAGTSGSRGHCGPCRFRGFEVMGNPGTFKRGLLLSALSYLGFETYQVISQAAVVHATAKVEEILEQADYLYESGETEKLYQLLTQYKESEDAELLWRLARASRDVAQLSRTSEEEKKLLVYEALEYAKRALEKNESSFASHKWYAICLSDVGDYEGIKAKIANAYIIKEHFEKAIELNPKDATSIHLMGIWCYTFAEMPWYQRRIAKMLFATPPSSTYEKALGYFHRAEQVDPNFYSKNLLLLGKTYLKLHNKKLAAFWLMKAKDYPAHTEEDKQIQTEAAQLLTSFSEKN
UniProt P52758: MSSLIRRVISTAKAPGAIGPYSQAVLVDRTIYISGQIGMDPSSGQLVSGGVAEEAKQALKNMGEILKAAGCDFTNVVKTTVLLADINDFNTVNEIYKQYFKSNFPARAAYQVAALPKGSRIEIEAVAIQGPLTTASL
UniProt Q8TDP1: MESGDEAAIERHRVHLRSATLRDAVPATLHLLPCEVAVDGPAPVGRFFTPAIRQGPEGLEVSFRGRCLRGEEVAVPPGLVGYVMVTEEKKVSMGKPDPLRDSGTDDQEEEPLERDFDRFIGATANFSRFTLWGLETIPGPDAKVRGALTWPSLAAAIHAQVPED
UniProt Q5TBB1: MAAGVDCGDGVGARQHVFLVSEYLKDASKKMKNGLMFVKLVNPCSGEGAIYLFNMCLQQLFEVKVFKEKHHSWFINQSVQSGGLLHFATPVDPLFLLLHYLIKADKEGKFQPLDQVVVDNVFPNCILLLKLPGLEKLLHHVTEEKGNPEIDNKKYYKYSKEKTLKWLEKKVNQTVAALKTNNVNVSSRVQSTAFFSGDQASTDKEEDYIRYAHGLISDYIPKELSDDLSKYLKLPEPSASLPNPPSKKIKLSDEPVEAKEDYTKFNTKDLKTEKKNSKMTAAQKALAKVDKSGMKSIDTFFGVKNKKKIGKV
UniProt Q9H4A4: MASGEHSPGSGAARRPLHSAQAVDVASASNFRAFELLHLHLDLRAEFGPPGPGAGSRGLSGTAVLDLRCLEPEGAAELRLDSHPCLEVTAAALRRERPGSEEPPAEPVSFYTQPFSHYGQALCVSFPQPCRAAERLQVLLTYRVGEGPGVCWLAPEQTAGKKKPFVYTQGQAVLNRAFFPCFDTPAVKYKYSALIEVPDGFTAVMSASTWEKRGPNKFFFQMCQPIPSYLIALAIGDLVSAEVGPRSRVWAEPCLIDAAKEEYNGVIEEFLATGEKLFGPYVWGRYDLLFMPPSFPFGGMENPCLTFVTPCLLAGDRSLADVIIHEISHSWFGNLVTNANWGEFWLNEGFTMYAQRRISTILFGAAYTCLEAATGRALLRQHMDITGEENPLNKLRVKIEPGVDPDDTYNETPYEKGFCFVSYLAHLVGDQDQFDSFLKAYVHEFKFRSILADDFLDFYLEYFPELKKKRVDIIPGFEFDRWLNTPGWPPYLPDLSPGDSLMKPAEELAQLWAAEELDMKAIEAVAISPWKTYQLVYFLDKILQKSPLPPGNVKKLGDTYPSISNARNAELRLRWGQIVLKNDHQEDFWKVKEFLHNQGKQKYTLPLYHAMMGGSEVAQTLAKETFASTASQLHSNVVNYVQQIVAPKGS
UniProt Q6R327, whole entry, looked up: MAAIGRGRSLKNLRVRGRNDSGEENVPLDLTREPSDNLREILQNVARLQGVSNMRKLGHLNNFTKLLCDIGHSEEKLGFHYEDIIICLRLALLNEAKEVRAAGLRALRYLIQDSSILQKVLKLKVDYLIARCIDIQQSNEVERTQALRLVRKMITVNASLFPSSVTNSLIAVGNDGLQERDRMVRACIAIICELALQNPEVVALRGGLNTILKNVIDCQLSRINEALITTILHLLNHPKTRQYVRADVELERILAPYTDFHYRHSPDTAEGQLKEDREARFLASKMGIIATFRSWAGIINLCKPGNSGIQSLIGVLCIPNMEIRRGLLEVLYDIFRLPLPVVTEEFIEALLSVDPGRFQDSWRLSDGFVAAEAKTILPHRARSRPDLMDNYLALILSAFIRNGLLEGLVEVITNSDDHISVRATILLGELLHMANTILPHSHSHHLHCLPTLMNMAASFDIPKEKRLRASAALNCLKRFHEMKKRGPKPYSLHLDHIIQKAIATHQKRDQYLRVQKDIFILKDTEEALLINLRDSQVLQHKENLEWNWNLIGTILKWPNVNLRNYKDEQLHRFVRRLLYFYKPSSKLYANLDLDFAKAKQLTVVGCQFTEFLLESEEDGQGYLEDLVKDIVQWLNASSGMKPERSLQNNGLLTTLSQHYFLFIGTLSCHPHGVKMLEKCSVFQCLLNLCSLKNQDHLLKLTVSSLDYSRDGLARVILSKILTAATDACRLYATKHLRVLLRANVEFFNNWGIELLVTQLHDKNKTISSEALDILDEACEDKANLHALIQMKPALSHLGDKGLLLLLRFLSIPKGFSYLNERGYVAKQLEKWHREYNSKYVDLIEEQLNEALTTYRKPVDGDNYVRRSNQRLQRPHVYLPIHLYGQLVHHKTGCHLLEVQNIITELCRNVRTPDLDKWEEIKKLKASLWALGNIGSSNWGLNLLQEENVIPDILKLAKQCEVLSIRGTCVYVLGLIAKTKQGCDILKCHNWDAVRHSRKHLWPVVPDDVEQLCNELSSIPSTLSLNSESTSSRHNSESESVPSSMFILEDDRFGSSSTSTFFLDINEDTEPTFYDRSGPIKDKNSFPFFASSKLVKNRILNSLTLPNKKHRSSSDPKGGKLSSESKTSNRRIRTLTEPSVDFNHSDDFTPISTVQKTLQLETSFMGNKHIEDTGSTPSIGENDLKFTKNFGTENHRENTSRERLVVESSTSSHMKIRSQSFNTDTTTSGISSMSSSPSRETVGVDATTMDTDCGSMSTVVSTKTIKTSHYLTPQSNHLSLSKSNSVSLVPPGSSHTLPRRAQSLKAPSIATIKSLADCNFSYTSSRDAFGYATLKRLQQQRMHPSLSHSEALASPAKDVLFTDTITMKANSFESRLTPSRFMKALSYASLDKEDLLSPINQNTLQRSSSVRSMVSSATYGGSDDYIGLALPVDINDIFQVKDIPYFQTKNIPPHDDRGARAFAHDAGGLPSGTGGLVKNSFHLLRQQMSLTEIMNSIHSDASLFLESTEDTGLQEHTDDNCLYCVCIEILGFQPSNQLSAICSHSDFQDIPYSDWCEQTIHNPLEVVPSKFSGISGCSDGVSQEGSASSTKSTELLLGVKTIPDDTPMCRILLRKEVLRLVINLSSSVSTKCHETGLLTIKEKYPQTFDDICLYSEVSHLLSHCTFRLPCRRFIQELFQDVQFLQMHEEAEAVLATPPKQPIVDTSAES
UniProt Q96A37: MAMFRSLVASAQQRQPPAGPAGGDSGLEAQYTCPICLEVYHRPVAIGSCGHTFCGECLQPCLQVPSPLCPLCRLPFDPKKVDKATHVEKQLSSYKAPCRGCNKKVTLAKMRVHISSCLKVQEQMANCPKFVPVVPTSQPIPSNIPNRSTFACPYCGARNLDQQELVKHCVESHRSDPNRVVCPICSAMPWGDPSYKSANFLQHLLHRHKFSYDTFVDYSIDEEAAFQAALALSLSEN

Columns and labels:
Experiment in all cases: log2 fold change, soluble protein after heating vs DMSO (PISA); higher = thermal stabilisation; K562 lysate, 10 uM; active = over 0.2 and 3.5 SD of the protein, either way, in both replicates (recomputed)
lapatinib = compound: CS(=O)(=O)CCNCc1ccc(-c2ccc3ncnc(Nc4ccc(OCc5cccc(F)c5)c(Cl)c4)c3c2)o1 [lapatinib]
Procedure, shortened: (§1)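 Values give the log-two fold change in thermal stability against solvent controls, from duplicates. Crude K562 extract at 1 mg/mL protein, made by dounce homogenisation in PBS pH 7.4 with 1 mM MgCl2, was treated with 10 μM compound for 30 min. After 3 min heating across 48°C-58°C, aliquots were pooled, adjusted to 0.5% NP-40 at 4°C and centrifuged at 21,000xg for 90 min. The supernatant was measured by TMTpro 16plex LC-MS/MS with channel sums equalised.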

pictilisib = compound: CS(=O)(=O)N1CCN(Cc2cc3nc(-c4cccc5[nH]ncc45)nc(N4CCOCC4)c3s2)CC1 [pictilisib]
Procedure, shortened: as §1

crizotinib = compound: C[C@@H](Oc1cc(-c2cnn(C3CCNCC3)c2)cnc1N)c1c(Cl)ccc(F)c1Cl [crizotinib]
Procedure, shortened: as §1

[1] = compound: C[C@H](C1=CC=C(C=C1)C(=O)NC2=C3C=CNC3=NC=C2)N
Procedure, shortened: as §1

duvelisib = compound: C[C@H](Nc1ncnc2nc[nH]c12)c1cc2cccc(Cl)c2c(=O)n1-c1ccccc1 [duvelisib]
Procedure, shortened: as §1

gandotinib = compound: Cc1cc(Nc2cc(CN3CCOCC3)c3nc(C)c(Cc4ccc(Cl)cc4F)n3n2)n[nH]1 [gandotinib]
Procedure, shortened: as §1

tozasertib = compound: Cc1cc(Nc2cc(N3CCN(C)CC3)nc(Sc3ccc(NC(=O)C4CC4)cc3)n2)n[nH]1 [tozasertib]
Procedure, shortened: as §1

doramapimod = compound: Cc1ccc(-n2nc(C(C)(C)C)cc2NC(=O)Nc2ccc(OCCN3CCOCC3)c3ccccc23)cc1 [doramapimod]
Procedure, shortened: as §1

bafetinib = compound: Cc1ccc(NC(=O)c2ccc(CN3CC[C@H](N(C)C)C3)c(C(F)(F)F)c2)cc1Nc1nccc(-c2cncnc2)n1 [bafetinib]
Procedure, shortened: as §1

[2] = compound: Cc1cccc(CC(=O)N2CCc3c2ccc(-c2cn(C)c4ncnc(N)c24)c3F)n1
Procedure, shortened: as §1

Measured: log2 fold change

RIC8A (UniProt Q9NPQ8)
inactive: lapatinib 0.018 | pictilisib -0.021 | crizotinib -0.034 | [1] -0.004 | duvelisib -0.023 | gandotinib -0.076 | tozasertib 0.024 | doramapimod 0.041 | bafetinib 0.004 | [2] 0.029

RPL10 (UniProt F8W7C6)
inactive: lapatinib -0.114 | pictilisib 0.005 | crizotinib -0.068 | [1] -0.212 | duvelisib 0.014 | gandotinib 0.017 | tozasertib -0.046 | doramapimod -0.013 | bafetinib -0.108 | [2] 0.11

RPL23A (UniProt P62750)
inactive: lapatinib -0.021 | pictilisib 0.016 | crizotinib 0.025 | [1] 0.186 | duvelisib 0.004 | gandotinib -0.095 | tozasertib -0.014 | doramapimod -0.042 | bafetinib 0.016 | [2] -0.129

RNF214 (UniProt Q8ND24)
inactive: lapatinib 0.036 | pictilisib -0.019 | crizotinib 0.107 | [1] -0.008 | duvelisib -0.046 | gandotinib 0.026 | tozasertib -0.004 | doramapimod 0.035 | bafetinib -0.022 | [2] 0.028

Quoted at random: 2 entries already listed
RPL23A (UniProt P62750)
inactive: lapatinib -0.021 | pictilisib 0.016 | crizotinib 0.025 | [1] 0.186 | duvelisib 0.004 | gandotinib -0.095 | tozasertib -0.014 | doramapimod -0.042 | bafetinib 0.016 | [2] -0.129

RNF214 (UniProt Q8ND24)
inactive: lapatinib 0.036 | pictilisib -0.019 | crizotinib 0.107 | [1] -0.008 | duvelisib -0.046 | gandotinib 0.026 | tozasertib -0.004 | doramapimod 0.035 | bafetinib -0.022 | [2] 0.028

Next part.

RNF146 (UniProt Q9NTX7)
inactive: lapatinib 0.036 | pictilisib -0.054 | crizotinib -0.024 | [1] -0.023 | duvelisib 0.023 | gandotinib 0.01 | tozasertib 0.029 | doramapimod 0.025 | bafetinib 0.044 | [2] -0.011

RMDN1 (UniProt Q96DB5)
inactive: lapatinib 0.02 | pictilisib -0.01 | crizotinib 0.006 | [1] 0.046 | duvelisib -0.005 | gandotinib -0.025 | tozasertib 0 | doramapimod 0.033 | bafetinib 0.023 | [2] -0.017

RIDA (UniProt P52758)
inactive: lapatinib 0.073 | pictilisib -0.029 | crizotinib 0.06 | [1] 0.028 | duvelisib 0.017 | gandotinib 0 | tozasertib -0.008 | doramapimod -0.034 | bafetinib 0.087 | [2] -0.029

RNASEH2C (UniProt Q8TDP1)
inactive: lapatinib 0.008 | pictilisib 0.008 | crizotinib -0.02 | [1] -0.181 | duvelisib 0.002 | gandotinib 0.017 | tozasertib 0.023 | doramapimod 0.011 | bafetinib -0.024 | [2] 0.075

RPL19 (UniProt P84098)
inactive: lapatinib -0.022 | pictilisib -0.002 | crizotinib 0.028 | [1] 0.111 | duvelisib -0.005 | gandotinib -0.082 | tozasertib -0.038 | doramapimod 0.001 | bafetinib 0.018 | [2] -0.125

RNASEH2B (UniProt Q5TBB1)
inactive: lapatinib 0.001 | pictilisib 0.039 | crizotinib -0.049 | [1] 0.126 | duvelisib 0.03 | gandotinib -0.126 | tozasertib 0.055 | doramapimod 0.041 | bafetinib 0.027 | [2] -0.064

RPL29 (UniProt P47914)
inactive: lapatinib -0.001 | pictilisib -0.032 | crizotinib 0.06 | [1] 0.107 | duvelisib 0.017 | gandotinib -0.057 | tozasertib -0.009 | doramapimod -0.071 | bafetinib 0.04 | [2] -0.113

RNPEP (UniProt Q9H4A4)
inactive: lapatinib 0.019 | pictilisib 0.002 | crizotinib -0.006 | [1] -0.004 | duvelisib -0.009 | gandotinib 0.004 | tozasertib -0.013 | doramapimod 0.009 | bafetinib 0.07 | [2] 0.017

RPL35 (UniProt P42766)
inactive: lapatinib -0.144 | pictilisib 0.002 | crizotinib -0.018 | [1] -0.034 | duvelisib 0.024 | gandotinib 0.031 | tozasertib -0.028 | doramapimod -0.11 | bafetinib -0.035 | [2] 0.004

RICTOR isoform 3 (UniProt Q6R327)
inactive: lapatinib -0.024 | pictilisib -0.094 | crizotinib -0.086 | [1] 0.031 | duvelisib 0.022 | gandotinib -0.202 | tozasertib -0.011 | doramapimod 0.117 | bafetinib -0.056 | [2] -0.114

RNF166 (UniProt Q96A37)
inactive: lapatinib 0.172 | pictilisib 0.026 | crizotinib -0.071 | [1] 0.408 | duvelisib 0.044 | gandotinib -0.304 | tozasertib 0.062 | doramapimod 0.019 | bafetinib -0.05 | [2] 0.21
